The other results are listed elsewhere or left out.

The chains behind the UniProt entries cited, without tags or fusion partners. Where a name states a change or a piece, a line headed by the entry shows the natural chain unless it says otherwise.
UniProt P07996: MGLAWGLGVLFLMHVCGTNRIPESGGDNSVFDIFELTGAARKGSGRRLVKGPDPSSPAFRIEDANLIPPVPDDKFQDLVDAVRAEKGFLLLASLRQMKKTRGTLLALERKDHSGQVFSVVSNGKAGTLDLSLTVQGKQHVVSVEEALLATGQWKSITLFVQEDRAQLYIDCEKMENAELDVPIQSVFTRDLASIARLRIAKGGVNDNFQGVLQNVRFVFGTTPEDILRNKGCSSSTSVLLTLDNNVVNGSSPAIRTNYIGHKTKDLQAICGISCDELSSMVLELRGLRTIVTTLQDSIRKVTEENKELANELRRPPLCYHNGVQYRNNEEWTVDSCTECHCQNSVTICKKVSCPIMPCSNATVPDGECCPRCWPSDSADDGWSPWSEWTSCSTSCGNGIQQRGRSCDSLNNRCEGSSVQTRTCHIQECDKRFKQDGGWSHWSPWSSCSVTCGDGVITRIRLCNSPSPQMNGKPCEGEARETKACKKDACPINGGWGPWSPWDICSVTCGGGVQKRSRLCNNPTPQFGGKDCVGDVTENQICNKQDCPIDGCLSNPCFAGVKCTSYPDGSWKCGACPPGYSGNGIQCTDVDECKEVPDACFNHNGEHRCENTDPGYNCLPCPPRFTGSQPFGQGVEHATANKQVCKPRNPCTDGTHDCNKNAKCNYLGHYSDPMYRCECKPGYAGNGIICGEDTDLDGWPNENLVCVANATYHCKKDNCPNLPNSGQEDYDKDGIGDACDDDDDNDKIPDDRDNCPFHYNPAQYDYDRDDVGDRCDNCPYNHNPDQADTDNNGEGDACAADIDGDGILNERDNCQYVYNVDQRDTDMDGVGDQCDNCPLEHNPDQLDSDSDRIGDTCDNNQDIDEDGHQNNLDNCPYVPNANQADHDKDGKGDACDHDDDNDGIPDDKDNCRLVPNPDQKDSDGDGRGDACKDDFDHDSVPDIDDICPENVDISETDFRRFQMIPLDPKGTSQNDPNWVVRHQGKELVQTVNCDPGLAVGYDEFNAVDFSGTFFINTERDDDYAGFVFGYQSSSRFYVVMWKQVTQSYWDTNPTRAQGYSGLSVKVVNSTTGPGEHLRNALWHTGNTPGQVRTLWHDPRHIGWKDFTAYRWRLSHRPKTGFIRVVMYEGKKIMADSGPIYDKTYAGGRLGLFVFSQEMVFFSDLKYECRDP
UniProt Q8NI27: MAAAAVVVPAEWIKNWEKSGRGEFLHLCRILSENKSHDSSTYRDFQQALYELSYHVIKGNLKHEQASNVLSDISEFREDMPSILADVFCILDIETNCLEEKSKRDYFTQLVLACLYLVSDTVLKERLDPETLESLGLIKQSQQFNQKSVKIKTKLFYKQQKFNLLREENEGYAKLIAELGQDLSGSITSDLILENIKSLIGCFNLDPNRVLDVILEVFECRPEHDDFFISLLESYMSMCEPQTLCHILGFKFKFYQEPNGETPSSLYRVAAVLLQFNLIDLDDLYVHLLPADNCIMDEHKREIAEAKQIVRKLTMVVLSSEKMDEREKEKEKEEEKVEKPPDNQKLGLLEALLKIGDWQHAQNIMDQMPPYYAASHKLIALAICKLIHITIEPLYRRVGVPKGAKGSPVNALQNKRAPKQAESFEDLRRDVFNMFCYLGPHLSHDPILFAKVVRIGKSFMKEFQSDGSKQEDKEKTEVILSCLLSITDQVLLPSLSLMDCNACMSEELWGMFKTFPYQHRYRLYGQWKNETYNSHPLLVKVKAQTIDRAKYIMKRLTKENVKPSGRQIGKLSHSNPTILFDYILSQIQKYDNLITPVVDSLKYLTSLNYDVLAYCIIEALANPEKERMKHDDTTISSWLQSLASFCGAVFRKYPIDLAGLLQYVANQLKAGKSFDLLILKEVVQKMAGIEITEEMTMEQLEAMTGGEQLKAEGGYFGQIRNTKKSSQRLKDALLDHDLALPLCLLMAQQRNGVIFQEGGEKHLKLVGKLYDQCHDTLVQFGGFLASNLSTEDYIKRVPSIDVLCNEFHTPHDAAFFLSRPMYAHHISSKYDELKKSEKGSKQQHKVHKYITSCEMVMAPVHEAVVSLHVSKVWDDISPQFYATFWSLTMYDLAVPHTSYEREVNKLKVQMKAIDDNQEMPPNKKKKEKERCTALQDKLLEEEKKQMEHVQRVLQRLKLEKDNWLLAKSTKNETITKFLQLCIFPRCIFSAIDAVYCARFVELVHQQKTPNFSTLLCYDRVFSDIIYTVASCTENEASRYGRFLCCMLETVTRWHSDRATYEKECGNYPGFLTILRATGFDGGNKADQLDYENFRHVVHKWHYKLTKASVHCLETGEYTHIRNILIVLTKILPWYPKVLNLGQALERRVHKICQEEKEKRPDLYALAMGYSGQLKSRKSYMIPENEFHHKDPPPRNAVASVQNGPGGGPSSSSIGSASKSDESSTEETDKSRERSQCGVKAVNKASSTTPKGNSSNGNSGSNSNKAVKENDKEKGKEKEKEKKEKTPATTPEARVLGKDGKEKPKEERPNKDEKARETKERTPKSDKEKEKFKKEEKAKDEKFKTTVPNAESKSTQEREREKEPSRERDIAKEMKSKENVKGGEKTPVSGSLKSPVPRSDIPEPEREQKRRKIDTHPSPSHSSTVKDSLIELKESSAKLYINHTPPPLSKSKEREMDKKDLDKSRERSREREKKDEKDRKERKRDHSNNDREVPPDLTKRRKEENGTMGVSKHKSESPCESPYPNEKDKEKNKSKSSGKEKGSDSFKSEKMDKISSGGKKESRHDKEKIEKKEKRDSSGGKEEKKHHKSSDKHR
UniProt Q8IYQ7: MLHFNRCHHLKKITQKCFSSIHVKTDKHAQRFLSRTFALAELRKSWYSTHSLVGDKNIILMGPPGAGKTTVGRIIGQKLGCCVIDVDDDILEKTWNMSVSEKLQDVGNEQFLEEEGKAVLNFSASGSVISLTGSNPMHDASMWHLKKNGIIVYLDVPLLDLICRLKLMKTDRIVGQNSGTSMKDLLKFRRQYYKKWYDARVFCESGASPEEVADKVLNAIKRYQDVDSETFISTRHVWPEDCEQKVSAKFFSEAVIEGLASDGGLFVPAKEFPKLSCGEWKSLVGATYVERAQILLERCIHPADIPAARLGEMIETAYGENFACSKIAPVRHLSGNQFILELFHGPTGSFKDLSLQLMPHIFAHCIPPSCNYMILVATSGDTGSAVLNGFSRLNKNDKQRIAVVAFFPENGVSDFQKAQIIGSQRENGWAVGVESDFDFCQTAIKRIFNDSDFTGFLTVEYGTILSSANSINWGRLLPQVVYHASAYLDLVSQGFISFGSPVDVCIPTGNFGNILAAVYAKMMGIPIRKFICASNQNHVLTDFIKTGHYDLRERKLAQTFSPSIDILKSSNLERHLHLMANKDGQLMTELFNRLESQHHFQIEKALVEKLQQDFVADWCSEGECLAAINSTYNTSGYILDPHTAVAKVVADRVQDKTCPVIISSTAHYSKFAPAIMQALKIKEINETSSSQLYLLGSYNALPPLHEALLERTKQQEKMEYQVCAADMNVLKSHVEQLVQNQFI
UniProt Q96MV1: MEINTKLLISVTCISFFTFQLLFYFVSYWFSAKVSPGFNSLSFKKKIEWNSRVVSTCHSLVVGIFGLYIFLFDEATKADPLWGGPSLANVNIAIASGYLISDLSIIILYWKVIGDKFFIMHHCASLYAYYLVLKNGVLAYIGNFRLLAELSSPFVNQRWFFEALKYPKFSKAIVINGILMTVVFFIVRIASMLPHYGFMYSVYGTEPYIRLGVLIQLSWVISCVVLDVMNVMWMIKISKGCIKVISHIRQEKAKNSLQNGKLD
UniProt P02787, whole entry, looked up: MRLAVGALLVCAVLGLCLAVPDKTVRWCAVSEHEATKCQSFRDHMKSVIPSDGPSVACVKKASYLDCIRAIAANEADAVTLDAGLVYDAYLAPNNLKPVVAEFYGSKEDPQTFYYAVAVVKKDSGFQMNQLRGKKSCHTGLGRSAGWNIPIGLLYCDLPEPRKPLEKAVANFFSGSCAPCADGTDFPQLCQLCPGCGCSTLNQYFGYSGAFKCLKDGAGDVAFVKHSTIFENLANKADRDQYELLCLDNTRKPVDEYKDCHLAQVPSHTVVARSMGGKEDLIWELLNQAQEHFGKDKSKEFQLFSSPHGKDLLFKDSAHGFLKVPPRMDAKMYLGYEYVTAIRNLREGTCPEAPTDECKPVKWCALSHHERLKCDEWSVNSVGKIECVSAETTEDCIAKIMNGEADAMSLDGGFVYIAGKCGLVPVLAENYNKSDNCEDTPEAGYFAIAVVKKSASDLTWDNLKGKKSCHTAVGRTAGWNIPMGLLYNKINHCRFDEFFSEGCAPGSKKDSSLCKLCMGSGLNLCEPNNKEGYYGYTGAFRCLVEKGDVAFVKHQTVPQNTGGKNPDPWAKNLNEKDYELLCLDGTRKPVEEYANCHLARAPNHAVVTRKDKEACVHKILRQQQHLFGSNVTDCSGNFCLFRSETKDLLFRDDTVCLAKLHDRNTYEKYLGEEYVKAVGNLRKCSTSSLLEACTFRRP
UniProt Q86W42: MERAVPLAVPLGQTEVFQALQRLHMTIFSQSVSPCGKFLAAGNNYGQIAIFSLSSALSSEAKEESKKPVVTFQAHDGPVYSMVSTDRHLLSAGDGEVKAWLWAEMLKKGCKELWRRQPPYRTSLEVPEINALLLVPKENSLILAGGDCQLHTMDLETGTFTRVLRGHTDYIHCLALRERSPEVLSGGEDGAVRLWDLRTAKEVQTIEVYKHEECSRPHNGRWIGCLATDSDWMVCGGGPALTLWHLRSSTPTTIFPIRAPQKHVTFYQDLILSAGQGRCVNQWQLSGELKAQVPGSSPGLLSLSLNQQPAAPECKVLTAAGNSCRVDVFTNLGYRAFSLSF
UniProt Q9NPL8: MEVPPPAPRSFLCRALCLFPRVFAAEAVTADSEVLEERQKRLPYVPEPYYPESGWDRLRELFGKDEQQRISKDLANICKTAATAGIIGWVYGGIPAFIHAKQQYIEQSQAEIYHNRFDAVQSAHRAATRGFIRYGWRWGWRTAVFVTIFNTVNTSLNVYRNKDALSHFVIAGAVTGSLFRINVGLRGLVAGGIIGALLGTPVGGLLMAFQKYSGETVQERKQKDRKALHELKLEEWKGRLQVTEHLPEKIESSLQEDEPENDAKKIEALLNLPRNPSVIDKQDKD
UniProt O14925: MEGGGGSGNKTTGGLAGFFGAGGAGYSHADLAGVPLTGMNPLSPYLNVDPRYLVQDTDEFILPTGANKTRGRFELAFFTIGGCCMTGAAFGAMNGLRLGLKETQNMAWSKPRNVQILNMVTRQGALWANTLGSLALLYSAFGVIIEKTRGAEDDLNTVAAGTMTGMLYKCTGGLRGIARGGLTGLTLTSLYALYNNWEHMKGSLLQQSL
UniProt O60343: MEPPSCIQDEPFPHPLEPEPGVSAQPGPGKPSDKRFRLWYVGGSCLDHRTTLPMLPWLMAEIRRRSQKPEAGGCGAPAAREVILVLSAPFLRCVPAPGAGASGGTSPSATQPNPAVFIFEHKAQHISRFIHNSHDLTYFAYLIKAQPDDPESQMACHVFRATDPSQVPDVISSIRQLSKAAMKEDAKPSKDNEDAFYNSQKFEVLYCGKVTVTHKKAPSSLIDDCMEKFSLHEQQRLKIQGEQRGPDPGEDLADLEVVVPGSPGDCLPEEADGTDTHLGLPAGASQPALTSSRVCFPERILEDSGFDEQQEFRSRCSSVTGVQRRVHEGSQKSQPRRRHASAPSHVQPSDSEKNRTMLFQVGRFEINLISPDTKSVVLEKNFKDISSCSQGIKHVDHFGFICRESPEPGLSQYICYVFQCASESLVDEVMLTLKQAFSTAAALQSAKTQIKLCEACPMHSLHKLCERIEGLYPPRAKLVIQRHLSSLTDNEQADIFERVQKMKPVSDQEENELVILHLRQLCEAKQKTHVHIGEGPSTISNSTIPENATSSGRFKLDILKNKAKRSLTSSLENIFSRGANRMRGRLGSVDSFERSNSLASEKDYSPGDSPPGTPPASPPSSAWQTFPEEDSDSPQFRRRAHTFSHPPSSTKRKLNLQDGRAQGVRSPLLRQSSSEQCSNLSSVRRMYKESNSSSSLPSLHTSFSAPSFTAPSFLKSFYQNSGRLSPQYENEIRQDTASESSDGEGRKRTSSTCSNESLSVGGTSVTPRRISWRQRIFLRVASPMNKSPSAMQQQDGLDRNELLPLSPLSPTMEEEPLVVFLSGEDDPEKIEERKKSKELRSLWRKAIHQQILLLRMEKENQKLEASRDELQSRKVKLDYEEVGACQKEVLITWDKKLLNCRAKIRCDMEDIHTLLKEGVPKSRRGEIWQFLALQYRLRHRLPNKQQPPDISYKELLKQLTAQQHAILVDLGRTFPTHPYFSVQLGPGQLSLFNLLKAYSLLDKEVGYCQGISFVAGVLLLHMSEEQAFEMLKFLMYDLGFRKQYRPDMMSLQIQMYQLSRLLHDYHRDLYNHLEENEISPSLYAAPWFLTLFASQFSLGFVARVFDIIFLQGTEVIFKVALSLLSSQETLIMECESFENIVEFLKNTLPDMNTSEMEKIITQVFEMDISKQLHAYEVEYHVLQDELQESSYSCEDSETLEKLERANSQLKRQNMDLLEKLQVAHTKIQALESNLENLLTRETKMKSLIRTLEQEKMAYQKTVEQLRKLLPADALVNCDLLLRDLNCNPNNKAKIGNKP

Compound in the first assay: C1=CC=C2C(=C1)C3=NNC4=CC=CC(=C43)C2=O
As to the kind of experiment: log2 fold change, soluble protein after heating vs DMSO (PISA); higher = thermal stabilisation; K562 cells, 10 uM, 30 min; active = over 0.2 and 3.5 SD of the protein, either way, in both replicates (recomputed). The procedure, abridged: (§1)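 Values are thermal stability changes relative to control samples and are taken from duplicates. They are stated as log2 fold changes. Before quantification by TMTpro 16plex LC-MS/MS with equalised channel sums, K562 cells at 2×10^6 cells/mL were treated with 10 μM compound for 30 min, heated in aliquots for 3 min across 48°C-58°C, pooled, extracted in PBS with 0.5% NP-40 at 4°C, and centrifuged at 21,000xg for 90 min to give the soluble supernatant.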
Take TJAP1 (UniProt Q5JTD0): the log2 fold change was inactive: 0.036.
In the case of TCEA1 (UniProt P23193), the log2 fold change was inactive: 0.024.
Regarding TIMM50 isoform 2 (UniProt Q3ZCQ8), the log2 fold change was inactive: 0.005.
Still for that read-out and setting: under THUMPD1 (UniProt Q9NXG2) stands inactive: -0.003; under THBS1 (UniProt P07996), inactive: -0.061.
Same read-out and setting: the figure for TCIRG1 (UniProt Q13488) is inactive: -0.054; for TCF3 (UniProt P15923) it is inactive: -0.088.
Still for that read-out and setting: under THOC1 (UniProt Q96FV9) stands inactive: -0.067; under THOC2 (UniProt Q8NI27), inactive: -0.035.
With THNSL1 (UniProt Q8IYQ7), the log2 fold change was inactive: -0.016.
As to TBC1D22B (UniProt Q9NU19), the log2 fold change is inactive: -0.016.
Still for that read-out and setting: the figure for TLCD4 (UniProt Q96MV1) is inactive: 0.021; for THOC7 (UniProt Q6I9Y2) it is inactive: 0.004; for TKFC (UniProt Q3LXA3) it is inactive: -0.018.
Consider TGFBR3 (UniProt Q03167), for which the log2 fold change was inactive: -0.037.
TKT isoform 2 (UniProt P29401): the log2 fold change was inactive: 0.011.
Still for that read-out and setting: the figure for TDRKH (UniProt Q9Y2W6) is inactive: 0.085.
Still for that read-out and setting: under TGOLN2 isoform 7 (UniProt O43493) stands inactive: -0.003; under TBCC (UniProt Q15814), inactive: 0.015; under TF (UniProt P02787), inactive: -0.153.
For TDP2 isoform 2 (UniProt O95551), the log2 fold change is inactive: 0.093.
On to TERF2 (UniProt Q15554), for which the log2 fold change is inactive: -0.061.
Turning to THOC6 (UniProt Q86W42), the log2 fold change was inactive: 0.03.
Same read-out and setting: the figure for TBCB (UniProt Q99426) is inactive: -0.044; for TIMMDC1 (UniProt Q9NPL8) it is inactive: -0.025.
As to TBCE (UniProt Q15813), the log2 fold change was inactive: 0.067.
Same read-out and setting: under TK2 isoform 6 (UniProt O00142) stands inactive: -0.001; under TIMM23 (UniProt O14925), inactive: -0.03.
Consider TET1 (UniProt Q8NFU7), for which the log2 fold change is inactive: 0.102.
With TCP1 (UniProt P17987), the log2 fold change is inactive: 0.015.
Turning to TBL1X (UniProt O60907), the log2 fold change is inactive: -0.034.
Take TFB1M (UniProt Q8WVM0): the log2 fold change is inactive: 0.03.
Regarding TBL3 (UniProt Q12788), the log2 fold change was inactive: 0.002.
Same read-out and setting: the figure for TIMM8B (UniProt Q9Y5J9) is inactive: 0.027; for TBC1D4 (UniProt O60343) it is inactive: -0.034.
TGM2 (UniProt P21980): the log2 fold change is inactive: 0.003.
Consider TBL1XR1 (UniProt Q9BZK7), for which the log2 fold change was inactive: -0.031.
Take TESC (UniProt Q96BS2): the log2 fold change is inactive: -0.018.
Turning to TCF12 isoform 3 (UniProt Q99081), the log2 fold change was inactive: 0.042.

Compound in the next assay: C1CCN(C1)C(=O)NC2=CC=CC(=C2)NC3=NC=C(C(=N3)NCCC4=CN=CN4)Br
The description is as above. The procedure, abridged:
as §1
As for TJAP1 (UniProt Q5JTD0), the log2 fold change was inactive: 0.012.
Same read-out and setting: the figure for TCEA1 (UniProt P23193) is inactive: 0.001; for TIMM50 isoform 2 (UniProt Q3ZCQ8) it is inactive: 0.02.
On the same count and under the same terms, the figure for THUMPD1 (UniProt Q9NXG2) is inactive: 0.004; for THBS1 (UniProt P07996) it is inactive: 0.065.
Same read-out and setting: the figure for TCIRG1 (UniProt Q13488) is inactive: -0.01; for TCF3 (UniProt P15923) it is inactive: 0.029.
For THOC1 (UniProt Q96FV9), the log2 fold change was inactive: 0.048.
Same read-out and setting: under THOC2 (UniProt Q8NI27) stands inactive: -0.019.
For THNSL1 (UniProt Q8IYQ7), the log2 fold change was inactive: -0.046.
Same read-out and setting: under TBC1D22B (UniProt Q9NU19) stands inactive: -0.006; under TLCD4 (UniProt Q96MV1), inactive: -0.088; under THOC7 (UniProt Q6I9Y2), inactive: -0.029.
The same measure, in the same setting: the figure for TKFC (UniProt Q3LXA3) is inactive: 0.008; for TGFBR3 (UniProt Q03167) it is inactive: -0.006; for TKT isoform 2 (UniProt P29401) it is inactive: -0.004.
Same read-out and setting: the figure for TDRKH (UniProt Q9Y2W6) is inactive: -0.091; for TGOLN2 isoform 7 (UniProt O43493) it is inactive: 0.037.
Consider TBCC (UniProt Q15814), for which the log2 fold change was inactive: -0.014.
As to TF (UniProt P02787), the log2 fold change was inactive: 0.289.
The same measure, in the same setting: the figure for TDP2 isoform 2 (UniProt O95551) is inactive: 0.026; for TERF2 (UniProt Q15554) it is inactive: -0.104.
Same read-out and setting: the figure for THOC6 (UniProt Q86W42) is inactive: -0.015; for TBCB (UniProt Q99426) it is inactive: 0.018.
On to TIMMDC1 (UniProt Q9NPL8), for which the log2 fold change is inactive: 0.019.
Regarding TBCE (UniProt Q15813), the log2 fold change is inactive: -0.053.
Consider TK2 isoform 6 (UniProt O00142), for which the log2 fold change is inactive: 0.026.
Regarding TIMM23 (UniProt O14925), the log2 fold change is inactive: 0.004.
Same read-out and setting: the figure for TET1 (UniProt Q8NFU7) is inactive: -0.129; for TCP1 (UniProt P17987) it is inactive: -0.001; for TBL1X (UniProt O60907) it is inactive: -0.026.
On to TFB1M (UniProt Q8WVM0), for which the log2 fold change is inactive: 0.028.
Consider TBL3 (UniProt Q12788), for which the log2 fold change is inactive: 0.034.
In the case of TIMM8B (UniProt Q9Y5J9), the log2 fold change is inactive: -0.087.
Turning to TBC1D4 (UniProt O60343), the log2 fold change was inactive: -0.066.
Still for that read-out and setting: under TGM2 (UniProt P21980) stands inactive: -0.046; under TBL1XR1 (UniProt Q9BZK7), inactive: 0.009.
Regarding TESC (UniProt Q96BS2), the log2 fold change was inactive: 0.02.
Same read-out and setting: under TCF12 isoform 3 (UniProt Q99081) stands inactive: -0.036.

(Values after the supplement of paper PMC10849652.)
